These are yes or no findings as the source states them, for the method shown. Some binding calls cover weakened binding; strength is not graded here.
Columns and labels:
[1] = target: human Bcl-XL-GST fusion protein (human) [GST: P08515]; experiment: mRNA display selection on immobilized Bcl-XL-GST; cluster found among sequenced clones
[2] = target: human Bcl-XL-GST fusion protein (human) [GST: P08515]; experiment: free peptide on immobilized Bcl-XL-GST with Bak BH3 competitor

Row | binding [1] | binding [2] | Binder
1 | binds |  | GTRISDMLKLIADTWQRNCCPA (35S-Met labelled in vitro translation product) [Novel protein D, clone T25]
2 |  | binds | RWWMCGGRMEDMLCCRVGH [SEQ ID NO 245]

— patent publication US20030032157A1, “Polypeptides interactive with Bcl-XL” (priority 2001, published 2003)
